Data on two substances can be found in PMC3436762.

The chains behind the UniProt entries cited, without tags or fusion partners. Residues count along the entry.
UniProt O14763, residues 56-440: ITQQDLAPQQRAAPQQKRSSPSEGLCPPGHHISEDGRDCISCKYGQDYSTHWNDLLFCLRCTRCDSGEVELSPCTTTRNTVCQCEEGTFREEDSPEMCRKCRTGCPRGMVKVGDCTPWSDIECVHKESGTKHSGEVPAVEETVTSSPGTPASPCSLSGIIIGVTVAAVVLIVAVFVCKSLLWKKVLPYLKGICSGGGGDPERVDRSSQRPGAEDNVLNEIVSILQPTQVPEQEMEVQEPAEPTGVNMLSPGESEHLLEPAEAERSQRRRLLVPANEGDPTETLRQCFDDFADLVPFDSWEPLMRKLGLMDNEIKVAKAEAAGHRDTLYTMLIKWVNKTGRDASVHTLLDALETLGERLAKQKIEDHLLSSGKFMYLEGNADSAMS
UniProt Q13158: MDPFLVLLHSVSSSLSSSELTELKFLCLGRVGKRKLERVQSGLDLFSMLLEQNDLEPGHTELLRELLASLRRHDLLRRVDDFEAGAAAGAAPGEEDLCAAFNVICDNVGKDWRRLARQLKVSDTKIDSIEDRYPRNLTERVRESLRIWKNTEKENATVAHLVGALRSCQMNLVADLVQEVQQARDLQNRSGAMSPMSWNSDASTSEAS
UniProt Q14790: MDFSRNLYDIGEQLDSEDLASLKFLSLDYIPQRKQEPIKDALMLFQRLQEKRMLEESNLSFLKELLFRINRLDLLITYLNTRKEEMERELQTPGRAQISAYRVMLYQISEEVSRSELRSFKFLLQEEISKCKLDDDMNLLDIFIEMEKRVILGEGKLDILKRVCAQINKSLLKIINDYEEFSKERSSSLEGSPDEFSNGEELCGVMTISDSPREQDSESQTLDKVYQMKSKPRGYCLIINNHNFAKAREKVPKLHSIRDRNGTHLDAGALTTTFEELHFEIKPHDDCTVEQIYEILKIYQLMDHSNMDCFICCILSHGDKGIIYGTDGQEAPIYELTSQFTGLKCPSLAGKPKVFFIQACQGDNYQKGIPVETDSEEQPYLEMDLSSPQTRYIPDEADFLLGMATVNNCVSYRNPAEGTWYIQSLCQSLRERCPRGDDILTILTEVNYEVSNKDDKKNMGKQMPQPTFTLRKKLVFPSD

These are yes or no findings as the source states them, for the method shown. Binding seen in cells or lysates may run through a third protein. Some results given as binding are weak or reduced against the parent protein; the word gives no strength.

The target in assay [1] is membrane DR5 (endogenous, Jurkat and Daudi cells) (human (endogenous in Jurkat and Daudi)) (UniProt O14763). The experiment in a line: co-IP; Daudi cells (LaDR5-insensitive) treated with LaDR5 for 1 hour at 37°C, lysed in 20 mM Tris-HCl, 150 mM NaCl, 10 % glycerol, 2 mM EDTA, 1 % NP-40, pH 8.0; protein A beads; blot for FADD and caspase-8.
For assay [2] the target is unchanged. The assay is described as follows: co-IP; Jurkat cells treated with LaDR5 for 1 hour at 37°C, lysed in 20 mM Tris-HCl, 150 mM NaCl, 10 % glycerol, 2 mM EDTA, 1 % NP-40, pH 8.0; protein A beads; blot for FADD and caspase-8.

As to “FAS associated protein with death domain (FADD) (from UniProt Q13158 1-208)”, the binding entry in assay [1] is “no binding (condition: in Daudi cells (LaDR5-insensitive))”; in assay [2] it was “binds”.

“caspase-8 (from UniProt Q14790 1-479) (enzyme)”: the binding entry in assay [1] was “no binding (condition: in Daudi cells (LaDR5-insensitive))”.
